The list shows a part of the results, in another mix than the full data. Most values lie at the level of the controls, where differences are scatter.
compound: Nc1ncnc2c1ncn2[C@@H]1O[C@H](COP(=O)(O)OP(=O)(O)OP(=O)(O)O)[C@@H](O)[C@H]1O [adenosine 5'-triphosphate]; test: log2 fold change of tryptic peptide abundance, ligand vs vehicle (limited proteolysis) (log2 ratio); higher = more trypsin-susceptible (destabilized); settings: ligand concentration: 5 mM; sample: E. coli desalted lysate; replicate design: treated before aliquoting
Procedure: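 HT-PELSA: desalted E. coli K-12 BW25113 lysate (with 12 mM MgCl2) incubated with 5 mM ATP (pH 7) or water for 30 min at 25 C, then a 4 min trypsin pulse at 22 C. Peptides were quantified by DIA-MS (4 replicates). Value is the peptide log2 fold change (treated/control); negative = stabilized. Scale: negative = ligand-stabilized region.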
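Also: lysate desalted by size exclusion to strip endogenous ATP, peptide intensities built from DIA-NN precursor signals, and peptides missing any value discarded before comparison.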

Protein sequences, listed by entry. Tags and fused reporters are not part of them. Lines headed by an entry give the natural chain unless they say otherwise; changes in a name come on top.
UniProt Q46799: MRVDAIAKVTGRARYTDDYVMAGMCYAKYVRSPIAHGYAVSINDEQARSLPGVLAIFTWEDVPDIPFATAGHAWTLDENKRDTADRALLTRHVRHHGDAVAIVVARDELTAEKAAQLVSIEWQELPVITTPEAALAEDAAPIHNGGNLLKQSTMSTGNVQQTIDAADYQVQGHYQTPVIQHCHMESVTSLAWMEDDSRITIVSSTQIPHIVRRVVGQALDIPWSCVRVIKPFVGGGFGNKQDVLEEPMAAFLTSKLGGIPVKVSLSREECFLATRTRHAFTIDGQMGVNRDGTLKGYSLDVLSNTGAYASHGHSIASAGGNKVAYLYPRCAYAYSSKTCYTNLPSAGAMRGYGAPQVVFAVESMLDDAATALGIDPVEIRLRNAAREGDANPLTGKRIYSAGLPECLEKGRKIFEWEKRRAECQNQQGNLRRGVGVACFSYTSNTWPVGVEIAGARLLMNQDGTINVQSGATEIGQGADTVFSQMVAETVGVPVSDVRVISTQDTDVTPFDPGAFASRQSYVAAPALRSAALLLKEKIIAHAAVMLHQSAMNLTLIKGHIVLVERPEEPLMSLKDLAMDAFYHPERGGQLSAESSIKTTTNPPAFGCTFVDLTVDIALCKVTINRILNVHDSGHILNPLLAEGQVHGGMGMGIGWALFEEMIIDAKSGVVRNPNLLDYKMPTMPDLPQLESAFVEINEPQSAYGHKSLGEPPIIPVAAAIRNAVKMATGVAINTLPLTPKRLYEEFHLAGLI
UniProt P77309: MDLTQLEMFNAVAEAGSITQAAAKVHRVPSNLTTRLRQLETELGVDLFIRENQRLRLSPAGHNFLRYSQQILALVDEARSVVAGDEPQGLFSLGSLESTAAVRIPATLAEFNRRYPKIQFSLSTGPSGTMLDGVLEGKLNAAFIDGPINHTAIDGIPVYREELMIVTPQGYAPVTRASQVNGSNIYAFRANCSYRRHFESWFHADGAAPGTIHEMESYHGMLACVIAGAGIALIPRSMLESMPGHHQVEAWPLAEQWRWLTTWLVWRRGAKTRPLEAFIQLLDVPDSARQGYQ
UniProt Q46939: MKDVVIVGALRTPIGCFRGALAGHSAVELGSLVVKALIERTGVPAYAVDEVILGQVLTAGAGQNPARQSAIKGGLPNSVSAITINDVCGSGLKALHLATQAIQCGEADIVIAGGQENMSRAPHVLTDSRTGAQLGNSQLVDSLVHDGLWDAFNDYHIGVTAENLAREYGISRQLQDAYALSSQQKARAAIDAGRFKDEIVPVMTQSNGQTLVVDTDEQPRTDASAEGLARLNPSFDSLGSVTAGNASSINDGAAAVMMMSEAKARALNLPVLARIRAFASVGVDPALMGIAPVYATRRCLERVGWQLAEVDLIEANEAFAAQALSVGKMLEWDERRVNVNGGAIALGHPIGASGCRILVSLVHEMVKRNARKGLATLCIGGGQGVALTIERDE
UniProt P77622: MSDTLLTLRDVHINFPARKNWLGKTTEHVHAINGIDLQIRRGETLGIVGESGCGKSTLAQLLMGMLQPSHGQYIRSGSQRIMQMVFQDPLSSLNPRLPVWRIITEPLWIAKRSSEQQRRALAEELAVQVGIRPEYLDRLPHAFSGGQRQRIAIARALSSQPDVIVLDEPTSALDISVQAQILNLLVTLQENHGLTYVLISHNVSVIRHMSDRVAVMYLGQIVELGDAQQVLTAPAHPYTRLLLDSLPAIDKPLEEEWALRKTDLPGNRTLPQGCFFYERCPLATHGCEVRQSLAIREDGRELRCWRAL
UniProt Q46907: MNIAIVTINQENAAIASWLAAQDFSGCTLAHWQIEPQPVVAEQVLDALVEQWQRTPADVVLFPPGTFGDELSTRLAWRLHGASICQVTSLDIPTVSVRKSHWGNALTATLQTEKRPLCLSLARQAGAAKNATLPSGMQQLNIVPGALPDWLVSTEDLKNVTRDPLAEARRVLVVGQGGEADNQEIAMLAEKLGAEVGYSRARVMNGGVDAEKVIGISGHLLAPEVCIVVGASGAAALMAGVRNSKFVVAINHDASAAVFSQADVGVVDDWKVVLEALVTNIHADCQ
UniProt P77562: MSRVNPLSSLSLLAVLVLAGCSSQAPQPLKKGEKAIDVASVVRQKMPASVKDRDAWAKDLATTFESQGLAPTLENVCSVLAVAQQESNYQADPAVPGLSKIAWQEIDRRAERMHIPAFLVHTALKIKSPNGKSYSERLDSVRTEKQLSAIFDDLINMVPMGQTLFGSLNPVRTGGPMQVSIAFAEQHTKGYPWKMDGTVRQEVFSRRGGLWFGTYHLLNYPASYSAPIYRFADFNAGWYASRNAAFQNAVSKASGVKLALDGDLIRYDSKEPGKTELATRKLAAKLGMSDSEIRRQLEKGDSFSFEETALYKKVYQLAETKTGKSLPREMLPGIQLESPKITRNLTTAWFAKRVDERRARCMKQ
UniProt Q47679: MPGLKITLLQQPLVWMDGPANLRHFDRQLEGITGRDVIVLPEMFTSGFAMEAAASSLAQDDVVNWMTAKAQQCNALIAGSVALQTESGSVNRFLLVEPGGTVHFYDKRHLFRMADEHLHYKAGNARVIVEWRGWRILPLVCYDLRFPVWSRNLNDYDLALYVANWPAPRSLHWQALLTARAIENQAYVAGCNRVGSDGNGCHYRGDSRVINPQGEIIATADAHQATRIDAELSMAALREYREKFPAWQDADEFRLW
UniProt P77338: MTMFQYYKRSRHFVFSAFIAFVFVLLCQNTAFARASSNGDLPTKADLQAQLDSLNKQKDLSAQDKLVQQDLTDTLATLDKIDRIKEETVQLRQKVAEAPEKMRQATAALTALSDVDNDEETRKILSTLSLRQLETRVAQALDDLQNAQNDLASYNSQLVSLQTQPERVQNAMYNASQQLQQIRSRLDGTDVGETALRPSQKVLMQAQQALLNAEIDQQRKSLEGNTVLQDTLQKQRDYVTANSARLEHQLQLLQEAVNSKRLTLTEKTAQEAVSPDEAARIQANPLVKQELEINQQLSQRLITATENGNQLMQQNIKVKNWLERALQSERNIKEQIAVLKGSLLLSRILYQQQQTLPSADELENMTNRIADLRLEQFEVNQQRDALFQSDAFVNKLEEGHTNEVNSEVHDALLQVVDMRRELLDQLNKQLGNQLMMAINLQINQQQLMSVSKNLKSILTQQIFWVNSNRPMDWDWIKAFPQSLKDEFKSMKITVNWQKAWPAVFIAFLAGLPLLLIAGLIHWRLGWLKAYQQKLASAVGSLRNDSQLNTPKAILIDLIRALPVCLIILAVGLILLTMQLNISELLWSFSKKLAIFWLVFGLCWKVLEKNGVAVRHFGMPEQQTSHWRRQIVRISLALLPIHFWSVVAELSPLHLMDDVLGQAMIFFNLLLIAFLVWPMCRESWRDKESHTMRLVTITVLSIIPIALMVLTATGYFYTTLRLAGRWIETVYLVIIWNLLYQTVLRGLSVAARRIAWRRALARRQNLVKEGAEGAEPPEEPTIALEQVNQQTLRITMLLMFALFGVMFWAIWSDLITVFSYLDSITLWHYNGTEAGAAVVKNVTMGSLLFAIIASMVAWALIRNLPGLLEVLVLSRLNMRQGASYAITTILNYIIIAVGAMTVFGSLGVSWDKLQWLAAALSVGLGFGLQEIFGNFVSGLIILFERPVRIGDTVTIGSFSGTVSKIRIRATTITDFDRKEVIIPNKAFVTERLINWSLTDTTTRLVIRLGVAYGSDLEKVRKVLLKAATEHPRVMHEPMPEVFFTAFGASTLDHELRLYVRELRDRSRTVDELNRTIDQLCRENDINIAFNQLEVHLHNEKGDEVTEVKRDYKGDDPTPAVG
UniProt P77318: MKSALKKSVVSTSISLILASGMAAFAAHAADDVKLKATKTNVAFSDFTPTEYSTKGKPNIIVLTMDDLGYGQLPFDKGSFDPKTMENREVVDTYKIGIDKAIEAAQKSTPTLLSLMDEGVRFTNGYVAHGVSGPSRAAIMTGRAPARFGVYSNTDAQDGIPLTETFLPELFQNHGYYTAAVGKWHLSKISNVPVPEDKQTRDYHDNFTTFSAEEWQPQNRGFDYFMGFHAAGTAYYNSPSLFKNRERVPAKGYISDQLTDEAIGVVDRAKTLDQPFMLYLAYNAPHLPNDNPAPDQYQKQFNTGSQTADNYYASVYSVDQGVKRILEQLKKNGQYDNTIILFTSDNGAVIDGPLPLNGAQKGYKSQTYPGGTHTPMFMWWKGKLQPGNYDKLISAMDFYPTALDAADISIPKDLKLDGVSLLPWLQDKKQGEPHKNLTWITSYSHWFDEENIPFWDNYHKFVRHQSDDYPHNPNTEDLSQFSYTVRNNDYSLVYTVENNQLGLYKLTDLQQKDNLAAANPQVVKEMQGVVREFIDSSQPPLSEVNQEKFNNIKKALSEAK
UniProt Q47158: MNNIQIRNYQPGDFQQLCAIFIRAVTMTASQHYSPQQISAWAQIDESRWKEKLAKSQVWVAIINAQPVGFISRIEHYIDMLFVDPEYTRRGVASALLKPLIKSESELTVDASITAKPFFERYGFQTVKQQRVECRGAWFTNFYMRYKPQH
UniProt Q6BF16: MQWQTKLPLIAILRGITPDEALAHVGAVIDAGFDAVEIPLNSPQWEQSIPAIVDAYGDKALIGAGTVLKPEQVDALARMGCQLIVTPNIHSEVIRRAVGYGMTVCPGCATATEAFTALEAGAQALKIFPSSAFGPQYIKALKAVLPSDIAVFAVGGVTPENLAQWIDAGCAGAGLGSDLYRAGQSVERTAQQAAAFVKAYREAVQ
UniProt Q47690: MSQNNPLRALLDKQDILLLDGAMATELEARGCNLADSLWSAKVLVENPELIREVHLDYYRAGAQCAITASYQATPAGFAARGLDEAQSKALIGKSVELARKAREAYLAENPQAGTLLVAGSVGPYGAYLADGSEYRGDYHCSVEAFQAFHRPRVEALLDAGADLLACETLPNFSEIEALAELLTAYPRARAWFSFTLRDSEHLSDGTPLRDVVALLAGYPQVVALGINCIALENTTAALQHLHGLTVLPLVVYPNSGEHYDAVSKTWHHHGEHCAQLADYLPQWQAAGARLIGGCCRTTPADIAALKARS
UniProt P77334: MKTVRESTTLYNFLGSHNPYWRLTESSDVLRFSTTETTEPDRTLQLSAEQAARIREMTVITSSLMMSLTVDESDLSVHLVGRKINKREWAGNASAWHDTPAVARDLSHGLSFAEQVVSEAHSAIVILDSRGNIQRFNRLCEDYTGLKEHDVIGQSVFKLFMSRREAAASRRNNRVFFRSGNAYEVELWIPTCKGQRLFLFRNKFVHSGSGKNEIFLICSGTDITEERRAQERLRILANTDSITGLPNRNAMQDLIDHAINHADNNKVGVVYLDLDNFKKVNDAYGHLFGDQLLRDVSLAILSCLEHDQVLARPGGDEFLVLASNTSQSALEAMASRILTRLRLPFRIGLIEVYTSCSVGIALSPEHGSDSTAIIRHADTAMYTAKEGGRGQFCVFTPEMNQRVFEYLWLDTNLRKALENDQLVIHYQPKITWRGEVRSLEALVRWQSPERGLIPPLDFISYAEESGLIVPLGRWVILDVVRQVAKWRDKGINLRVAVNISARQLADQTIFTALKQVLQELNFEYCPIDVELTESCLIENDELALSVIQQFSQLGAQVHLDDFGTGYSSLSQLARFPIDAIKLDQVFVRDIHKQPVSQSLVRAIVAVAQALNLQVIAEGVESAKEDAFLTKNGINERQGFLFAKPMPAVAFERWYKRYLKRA
UniProt Q47150: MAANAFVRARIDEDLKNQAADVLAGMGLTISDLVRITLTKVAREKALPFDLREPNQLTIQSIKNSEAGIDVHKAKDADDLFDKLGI
UniProt P77402: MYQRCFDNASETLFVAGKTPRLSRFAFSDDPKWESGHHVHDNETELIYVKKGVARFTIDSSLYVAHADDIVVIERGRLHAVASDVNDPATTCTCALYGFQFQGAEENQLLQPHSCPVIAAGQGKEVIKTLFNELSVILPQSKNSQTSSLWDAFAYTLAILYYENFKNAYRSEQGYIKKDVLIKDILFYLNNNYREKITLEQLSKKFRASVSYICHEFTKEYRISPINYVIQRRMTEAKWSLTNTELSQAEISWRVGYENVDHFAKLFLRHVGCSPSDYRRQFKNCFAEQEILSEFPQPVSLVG
UniProt P77510: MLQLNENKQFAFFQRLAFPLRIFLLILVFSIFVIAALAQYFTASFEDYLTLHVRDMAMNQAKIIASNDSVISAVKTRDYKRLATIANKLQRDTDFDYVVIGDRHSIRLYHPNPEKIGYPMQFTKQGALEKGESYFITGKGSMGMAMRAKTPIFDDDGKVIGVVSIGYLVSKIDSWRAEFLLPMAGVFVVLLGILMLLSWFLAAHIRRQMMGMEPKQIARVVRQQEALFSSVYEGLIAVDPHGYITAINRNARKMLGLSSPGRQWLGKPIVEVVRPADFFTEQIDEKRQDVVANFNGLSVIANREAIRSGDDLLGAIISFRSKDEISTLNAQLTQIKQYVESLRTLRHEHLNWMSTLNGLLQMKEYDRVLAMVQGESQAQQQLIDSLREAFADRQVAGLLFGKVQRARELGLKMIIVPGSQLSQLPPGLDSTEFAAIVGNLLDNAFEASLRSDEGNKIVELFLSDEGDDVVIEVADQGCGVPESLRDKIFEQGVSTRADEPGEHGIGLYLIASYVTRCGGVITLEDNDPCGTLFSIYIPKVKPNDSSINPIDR

Row | Target | log2 fold change
1 | UniProt P77379 (peptide sequence: LSHVDNESTCIVCGTLR, peptide start residue: 77) | -0.33
2 | UniProt P77634 (peptide sequence: ENGYKCPSR, peptide start residue: 235) | -0.56
3 | UniProt Q46799 (peptide sequence: CAYAYSSK, peptide start residue: 330) | -0.458
4 | UniProt P77700 (peptide sequence: IDTISQGIEAR, peptide start residue: 86) | -0.362
5 | UniProt P77744 (peptide sequence: SLMPAVISR, peptide start residue: 108) | -0.568
6 | UniProt Q46836 (peptide sequence: SHCPHCQQTIR, peptide start residue: 64) | 0.00641
7 | UniProt Q46901 (peptide sequence: NNQASILER, peptide start residue: 352) | 0.501
8 | UniProt P77309 (peptide sequence: LSPAGHNFLR, peptide start residue: 57) | -0.0915
9 | UniProt P77467 (peptide sequence: EGVSAFLAK, peptide start residue: 246) | -0.511
10 | UniProt P77791 (peptide sequence: EKMIAGELYR, peptide start residue: 6) | 0.697
11 | UniProt P77324 (peptide sequence: NTDLAAHER, peptide start residue: 75) | -0.393
12 | UniProt P77712 (peptide sequence: ALALEGELR, peptide start residue: 116) | 0.592
13 | UniProt Q46939 (peptide sequence: MLEWDER, peptide start residue: 329) | -0.212
14 | UniProt P77280 (peptide sequence: QAPYLVMR, peptide start residue: 253) | -0.435
15 | UniProt P77806 (peptide sequence: AVAVSSFGK, peptide start residue: 228) | -0.263
16 | UniProt Q46845 (peptide sequence: EVGERPAVK, peptide start residue: 245) | 0.639
17 | UniProt P77622 (peptide sequence: KTDLPGNR, peptide start residue: 261) | -0.252
18 | UniProt Q46907 (peptide sequence: VMNGGVDAEK, peptide start residue: 203) | -1.11
19 | UniProt P77562 (peptide sequence: AIDVASVVR, peptide start residue: 35) | 0.698
20 | UniProt Q47679 (peptide sequence: VGSDGNGCHYRGDSR, peptide start residue: 194) | -0.753

Looked up above:
Value of UniProt P77280 (peptide sequence: QAPYLVMR, peptide start residue: 253) under log2 fold change: -0.435
Value of UniProt P77744 (peptide sequence: SLMPAVISR, peptide start residue: 108) under log2 fold change: -0.568
Value of UniProt Q46836 (peptide sequence: SHCPHCQQTIR, peptide start residue: 64) under log2 fold change: 0.00641

Following part:

Row | Target | log2 fold change
21 | UniProt P77338 (peptide sequence: RLTLTEK, peptide start residue: 261) | 0.276
22 | UniProt P77318 (peptide sequence: DNLAAANPQVVK, peptide start residue: 513) | -0.181
23 | UniProt Q46897 (peptide sequence: DFLFHVEK, peptide start residue: 36) | 0.678
24 | UniProt P77774 (peptide sequence: IYLVDQNDR, peptide start residue: 296) | -0.293
25 | UniProt P77239 (peptide sequence: IDPTQTQNLGVK, peptide start residue: 84) | 0.282
26 | UniProt P77360 (peptide sequence: SSGICGSDVHYIYHQHR, peptide start residue: 36) | -0.437
27 | UniProt Q47158 (peptide sequence: GVASALLKPLIK, peptide start residue: 91) | 0.815
28 | UniProt Q47319 (peptide sequence: CQRCLLPEKLCLCSTITPAQAK, peptide start residue: 31) | -1.97
29 | UniProt Q57083 (peptide sequence: EGEILLEHIQR, peptide start residue: 66) | -0.348
30 | UniProt Q6BF16 (peptide sequence: ALIGAGTVLKPEQVDALAR, peptide start residue: 60) | -0.337
31 | UniProt Q46899 (peptide sequence: AEADNLDDKK, peptide start residue: 129) | -0.92
32 | UniProt Q47690 (peptide sequence: TTPADIAALK, peptide start residue: 298) | 0.236
33 | UniProt P77334 (peptide sequence: LDQVFVR, peptide start residue: 582) | -0.644
34 | UniProt Q47710 (peptide sequence: TTLKQQQLRG, peptide start residue: 90) | -0.0751
35 | UniProt Q47150 (peptide sequence: DADDLFDKLGI, peptide start residue: 76) | 0.766
36 | UniProt Q2EES0 (peptide sequence: VSSEANKEK, peptide start residue: 55) | -0.681
37 | UniProt P77402 (peptide sequence: VGYENVDHFAK, peptide start residue: 255) | 0.988
38 | UniProt P77510 (peptide sequence: VKPNDSSINPIDR, peptide start residue: 540) | -0.116
39 | UniProt Q46801 (peptide sequence: EKPLTITEIRR, peptide start residue: 123) | -0.236
40 | UniProt Q47152 (peptide sequence: HHVDYIYINPVK, peptide start residue: 111) | -0.173

From the supplement of paper PMC12819154, “High-throughput peptide-centric local stability assay extends protein–ligand identification to membrane proteins, tissues and bacteria” (Nature Structural & Molecular Biology, 2025)
